The supplement of paper PMC10060354, “Discovery of a small molecule ligand of FRS2 that inhibits invasion and tumor growth” (Cellular Oncology, 2022)

Sequences of proteins named here, by UniProt entry; tags and fusion partners are left off. A change or cut given only in a name is not applied to a line headed by its entry.
UniProt Q06265, whole entry: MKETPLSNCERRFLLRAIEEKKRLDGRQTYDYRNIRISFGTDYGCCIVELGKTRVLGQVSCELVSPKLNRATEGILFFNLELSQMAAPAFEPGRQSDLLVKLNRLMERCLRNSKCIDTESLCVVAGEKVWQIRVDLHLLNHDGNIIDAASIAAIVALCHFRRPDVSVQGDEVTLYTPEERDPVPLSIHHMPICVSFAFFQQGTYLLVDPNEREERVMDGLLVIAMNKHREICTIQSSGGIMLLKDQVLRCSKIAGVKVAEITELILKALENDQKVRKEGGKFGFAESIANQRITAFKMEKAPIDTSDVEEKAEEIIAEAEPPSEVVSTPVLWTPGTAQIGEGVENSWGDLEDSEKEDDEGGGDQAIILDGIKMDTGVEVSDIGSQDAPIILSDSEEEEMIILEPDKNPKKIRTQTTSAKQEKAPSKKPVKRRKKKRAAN
UniProt Q9BUI4: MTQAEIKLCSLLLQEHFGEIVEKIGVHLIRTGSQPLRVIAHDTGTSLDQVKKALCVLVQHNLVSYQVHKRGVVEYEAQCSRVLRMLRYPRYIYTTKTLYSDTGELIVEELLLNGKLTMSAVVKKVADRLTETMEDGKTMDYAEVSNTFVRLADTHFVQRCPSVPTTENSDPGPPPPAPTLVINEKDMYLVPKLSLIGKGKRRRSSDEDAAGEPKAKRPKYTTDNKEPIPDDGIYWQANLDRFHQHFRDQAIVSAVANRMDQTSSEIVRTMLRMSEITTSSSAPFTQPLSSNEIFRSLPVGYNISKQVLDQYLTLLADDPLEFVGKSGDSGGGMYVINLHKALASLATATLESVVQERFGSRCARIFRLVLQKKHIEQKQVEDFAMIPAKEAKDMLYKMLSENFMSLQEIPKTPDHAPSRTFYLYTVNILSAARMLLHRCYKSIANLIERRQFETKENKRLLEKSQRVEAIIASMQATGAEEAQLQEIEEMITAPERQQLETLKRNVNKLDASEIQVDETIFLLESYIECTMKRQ
UniProt Q9BS26: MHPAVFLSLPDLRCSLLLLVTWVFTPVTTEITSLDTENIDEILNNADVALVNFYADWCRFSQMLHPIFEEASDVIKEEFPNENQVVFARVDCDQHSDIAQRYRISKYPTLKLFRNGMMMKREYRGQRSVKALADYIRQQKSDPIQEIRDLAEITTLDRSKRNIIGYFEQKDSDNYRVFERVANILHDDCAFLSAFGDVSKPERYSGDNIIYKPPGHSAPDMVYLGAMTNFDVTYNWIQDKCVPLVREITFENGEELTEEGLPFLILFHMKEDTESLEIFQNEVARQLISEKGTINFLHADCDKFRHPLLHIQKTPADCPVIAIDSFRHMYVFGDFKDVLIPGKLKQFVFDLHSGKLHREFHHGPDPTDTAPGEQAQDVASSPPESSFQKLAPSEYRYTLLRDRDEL
UniProt O60220: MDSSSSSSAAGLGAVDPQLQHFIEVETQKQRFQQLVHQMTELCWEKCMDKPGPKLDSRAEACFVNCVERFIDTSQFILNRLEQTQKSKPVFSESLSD
UniProt Q9BRX8: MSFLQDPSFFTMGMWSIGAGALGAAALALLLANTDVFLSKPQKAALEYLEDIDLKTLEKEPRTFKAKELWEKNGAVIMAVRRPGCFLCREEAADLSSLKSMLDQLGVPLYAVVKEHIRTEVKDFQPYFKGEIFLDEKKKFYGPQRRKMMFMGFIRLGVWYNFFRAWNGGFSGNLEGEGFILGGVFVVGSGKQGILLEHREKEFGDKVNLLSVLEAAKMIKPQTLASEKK
UniProt P16520, whole entry: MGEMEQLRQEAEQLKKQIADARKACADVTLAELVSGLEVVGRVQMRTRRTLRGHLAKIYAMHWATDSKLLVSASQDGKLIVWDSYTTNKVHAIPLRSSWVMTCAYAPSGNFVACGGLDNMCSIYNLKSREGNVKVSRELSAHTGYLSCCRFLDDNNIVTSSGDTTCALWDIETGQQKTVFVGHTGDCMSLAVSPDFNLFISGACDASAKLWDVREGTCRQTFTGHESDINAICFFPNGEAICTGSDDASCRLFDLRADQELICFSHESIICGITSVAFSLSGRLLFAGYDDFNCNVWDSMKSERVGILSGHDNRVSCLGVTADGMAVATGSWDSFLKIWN
UniProt Q8NEZ5: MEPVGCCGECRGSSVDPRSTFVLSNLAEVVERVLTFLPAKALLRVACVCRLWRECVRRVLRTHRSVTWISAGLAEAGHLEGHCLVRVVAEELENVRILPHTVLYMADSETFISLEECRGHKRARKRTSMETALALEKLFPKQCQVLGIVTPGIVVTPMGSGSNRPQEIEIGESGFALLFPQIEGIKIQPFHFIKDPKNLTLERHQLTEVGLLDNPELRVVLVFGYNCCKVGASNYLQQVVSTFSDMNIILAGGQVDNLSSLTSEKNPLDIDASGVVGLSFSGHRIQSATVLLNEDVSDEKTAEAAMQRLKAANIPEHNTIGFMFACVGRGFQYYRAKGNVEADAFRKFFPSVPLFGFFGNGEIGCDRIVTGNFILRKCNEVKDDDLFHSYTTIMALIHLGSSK
UniProt Q29RF7: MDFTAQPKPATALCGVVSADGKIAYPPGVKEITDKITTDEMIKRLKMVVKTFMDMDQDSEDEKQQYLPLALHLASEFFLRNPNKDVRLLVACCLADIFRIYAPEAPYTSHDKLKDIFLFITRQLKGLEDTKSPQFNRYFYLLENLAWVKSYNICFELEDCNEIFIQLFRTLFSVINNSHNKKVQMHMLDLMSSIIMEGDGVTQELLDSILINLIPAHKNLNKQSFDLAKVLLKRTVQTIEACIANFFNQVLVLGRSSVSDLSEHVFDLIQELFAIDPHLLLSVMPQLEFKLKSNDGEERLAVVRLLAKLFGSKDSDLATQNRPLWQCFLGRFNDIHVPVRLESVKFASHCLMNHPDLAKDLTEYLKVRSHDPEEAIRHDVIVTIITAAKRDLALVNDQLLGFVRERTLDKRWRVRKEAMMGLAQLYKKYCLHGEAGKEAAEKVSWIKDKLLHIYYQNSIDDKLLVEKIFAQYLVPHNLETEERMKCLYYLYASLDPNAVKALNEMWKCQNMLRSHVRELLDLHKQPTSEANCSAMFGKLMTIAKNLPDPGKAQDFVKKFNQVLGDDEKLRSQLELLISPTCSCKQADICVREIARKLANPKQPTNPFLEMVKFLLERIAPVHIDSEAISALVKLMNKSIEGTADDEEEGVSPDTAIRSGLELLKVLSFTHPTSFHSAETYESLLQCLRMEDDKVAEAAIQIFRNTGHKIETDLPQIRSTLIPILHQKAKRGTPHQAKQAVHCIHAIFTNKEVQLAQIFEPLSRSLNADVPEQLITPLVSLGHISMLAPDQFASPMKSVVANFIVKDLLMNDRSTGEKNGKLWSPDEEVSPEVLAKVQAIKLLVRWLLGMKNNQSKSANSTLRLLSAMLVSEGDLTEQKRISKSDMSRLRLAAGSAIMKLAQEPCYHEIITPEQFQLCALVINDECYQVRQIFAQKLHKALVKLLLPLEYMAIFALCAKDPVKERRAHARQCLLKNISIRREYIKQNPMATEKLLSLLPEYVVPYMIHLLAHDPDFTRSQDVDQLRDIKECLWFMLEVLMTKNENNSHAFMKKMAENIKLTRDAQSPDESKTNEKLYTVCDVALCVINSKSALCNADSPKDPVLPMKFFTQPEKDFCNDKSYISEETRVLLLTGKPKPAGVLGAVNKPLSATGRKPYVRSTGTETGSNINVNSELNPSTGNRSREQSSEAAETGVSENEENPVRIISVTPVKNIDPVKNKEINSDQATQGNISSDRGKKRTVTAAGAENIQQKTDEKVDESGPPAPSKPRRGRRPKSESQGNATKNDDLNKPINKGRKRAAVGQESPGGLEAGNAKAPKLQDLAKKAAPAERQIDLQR
UniProt P17213: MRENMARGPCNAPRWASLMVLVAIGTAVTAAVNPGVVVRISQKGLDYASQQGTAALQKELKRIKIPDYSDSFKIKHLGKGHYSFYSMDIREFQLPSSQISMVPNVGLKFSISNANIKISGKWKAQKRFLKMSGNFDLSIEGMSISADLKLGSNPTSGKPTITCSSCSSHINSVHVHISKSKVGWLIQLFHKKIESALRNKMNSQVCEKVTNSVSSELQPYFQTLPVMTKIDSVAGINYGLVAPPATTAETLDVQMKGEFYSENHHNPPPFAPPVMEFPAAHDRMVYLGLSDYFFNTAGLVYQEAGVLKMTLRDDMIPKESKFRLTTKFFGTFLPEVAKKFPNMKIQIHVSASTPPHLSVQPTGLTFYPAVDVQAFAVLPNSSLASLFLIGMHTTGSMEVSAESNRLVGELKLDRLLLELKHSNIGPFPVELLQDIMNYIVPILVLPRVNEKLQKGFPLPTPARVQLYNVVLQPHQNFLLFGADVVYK
UniProt Q99643: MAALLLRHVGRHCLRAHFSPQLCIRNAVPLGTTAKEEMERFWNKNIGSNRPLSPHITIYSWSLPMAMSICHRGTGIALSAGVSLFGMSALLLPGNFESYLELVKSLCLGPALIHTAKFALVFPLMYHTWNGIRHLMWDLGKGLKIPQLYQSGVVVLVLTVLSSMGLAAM
UniProt P60602: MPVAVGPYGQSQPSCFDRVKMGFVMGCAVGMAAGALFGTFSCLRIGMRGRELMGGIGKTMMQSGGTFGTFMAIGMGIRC
UniProt Q6NXR4: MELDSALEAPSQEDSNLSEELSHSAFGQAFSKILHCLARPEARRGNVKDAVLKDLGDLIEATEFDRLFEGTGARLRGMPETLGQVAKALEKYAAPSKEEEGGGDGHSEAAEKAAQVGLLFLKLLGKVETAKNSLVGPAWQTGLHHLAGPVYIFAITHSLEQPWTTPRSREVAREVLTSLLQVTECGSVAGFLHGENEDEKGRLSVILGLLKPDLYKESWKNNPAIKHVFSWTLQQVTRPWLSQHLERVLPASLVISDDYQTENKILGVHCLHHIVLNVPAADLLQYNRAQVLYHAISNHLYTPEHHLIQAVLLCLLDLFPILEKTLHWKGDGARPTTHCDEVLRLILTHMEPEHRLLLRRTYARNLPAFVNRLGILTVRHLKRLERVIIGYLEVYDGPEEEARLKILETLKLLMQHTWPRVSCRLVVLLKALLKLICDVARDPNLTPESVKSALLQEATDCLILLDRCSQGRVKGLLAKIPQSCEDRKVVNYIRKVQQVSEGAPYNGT
UniProt O96005: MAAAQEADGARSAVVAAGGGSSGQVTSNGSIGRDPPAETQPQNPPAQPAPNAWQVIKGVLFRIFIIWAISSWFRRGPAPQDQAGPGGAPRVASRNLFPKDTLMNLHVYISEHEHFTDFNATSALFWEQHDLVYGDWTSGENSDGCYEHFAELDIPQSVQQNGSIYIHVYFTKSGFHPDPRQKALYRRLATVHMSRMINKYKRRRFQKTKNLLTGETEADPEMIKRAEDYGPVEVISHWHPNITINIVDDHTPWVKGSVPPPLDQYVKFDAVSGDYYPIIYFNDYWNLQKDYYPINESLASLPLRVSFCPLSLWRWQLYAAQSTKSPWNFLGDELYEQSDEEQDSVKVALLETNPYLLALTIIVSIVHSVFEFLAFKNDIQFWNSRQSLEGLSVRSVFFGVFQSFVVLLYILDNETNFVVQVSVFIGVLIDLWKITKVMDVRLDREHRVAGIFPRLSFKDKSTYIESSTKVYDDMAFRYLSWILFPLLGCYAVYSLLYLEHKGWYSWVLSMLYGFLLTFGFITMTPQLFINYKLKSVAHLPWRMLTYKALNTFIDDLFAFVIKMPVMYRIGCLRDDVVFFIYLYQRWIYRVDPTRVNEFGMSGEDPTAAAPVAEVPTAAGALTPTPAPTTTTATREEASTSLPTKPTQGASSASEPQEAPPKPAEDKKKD
UniProt Q9Y2Y0: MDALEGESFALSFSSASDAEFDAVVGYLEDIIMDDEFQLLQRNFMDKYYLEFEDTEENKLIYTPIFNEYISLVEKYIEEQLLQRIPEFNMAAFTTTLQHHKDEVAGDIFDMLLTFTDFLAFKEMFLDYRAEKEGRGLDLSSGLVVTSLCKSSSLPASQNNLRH
UniProt P13010: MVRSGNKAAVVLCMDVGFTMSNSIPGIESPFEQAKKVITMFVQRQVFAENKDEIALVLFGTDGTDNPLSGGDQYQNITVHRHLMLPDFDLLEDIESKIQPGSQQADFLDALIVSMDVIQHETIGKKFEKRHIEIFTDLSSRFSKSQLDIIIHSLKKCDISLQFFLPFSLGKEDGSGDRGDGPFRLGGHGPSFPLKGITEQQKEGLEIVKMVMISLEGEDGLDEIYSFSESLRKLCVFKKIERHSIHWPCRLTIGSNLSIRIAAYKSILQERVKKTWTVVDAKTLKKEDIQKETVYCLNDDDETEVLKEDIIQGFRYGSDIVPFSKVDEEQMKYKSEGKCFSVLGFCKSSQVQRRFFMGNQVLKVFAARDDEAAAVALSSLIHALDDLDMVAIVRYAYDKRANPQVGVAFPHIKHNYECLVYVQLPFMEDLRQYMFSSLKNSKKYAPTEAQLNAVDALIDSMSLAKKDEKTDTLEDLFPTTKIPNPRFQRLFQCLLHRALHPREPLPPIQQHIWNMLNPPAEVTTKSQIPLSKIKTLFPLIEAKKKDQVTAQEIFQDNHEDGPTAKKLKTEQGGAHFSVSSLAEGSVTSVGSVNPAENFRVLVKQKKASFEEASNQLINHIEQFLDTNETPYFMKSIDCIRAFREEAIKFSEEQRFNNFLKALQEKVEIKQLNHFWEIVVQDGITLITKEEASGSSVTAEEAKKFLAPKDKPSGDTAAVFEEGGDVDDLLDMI

Compound: [O-][N+](C(C1=C(C(O)=C2)NC(C(C=C3)=CC=C3Cl)C4C1C=CC4)=C2Cl)=O
Assay: melting temperature shift (compound 7 minus DMSO); higher = compound stabilises the protein
Details: 10 µM
Protocol: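 Thermal proteome profiling (TMT mass spectrometry) in intact DAOY medulloblastoma cells or DAOY lysates treated with 10 µM compound 7 or DMSO, heated at 10 temperatures from 40.5 to 73.8 °C for 3 min. Melting curves were fitted with the Bioconductor TPP package, and the melting point difference between compound and vehicle is reported per protein (single curve per condition).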

[1] = system: DAOY cell lysate, treatment time: 20 min, 4 °C
[2] = system: intact DAOY cells, treatment time: 90 min, 37 °C

Target	melting temperature shift [1]	melting temperature shift [2]
AKT1S1 (UniProt Q96B36)	-6.86 °C	0.565 °C
ANKRD17 (UniProt O75179)	-0.184 °C	-0.263 °C
EFHD2 (UniProt Q96C19)	-0.337 °C	0.0401 °C
EXOSC9 (UniProt Q06265)	2.09 °C	
PRKRIP1 (UniProt Q9H875)	0.174 °C	
HK2 (UniProt P52789)	-0.024 °C	-0.624 °C
POLR3C (UniProt Q9BUI4)	-0.749 °C	-0.419 °C
PCNA (UniProt P12004)	-0.887 °C	0.0182 °C
ERP44 (UniProt Q9BS26)	0.277 °C	1.02 °C
UniProt O14684	0.852 °C	2.33 °C
SHOC2 (UniProt Q9UQ13)	-0.706 °C	-0.166 °C
HDLBP (UniProt Q00341)	-0.297 °C	-0.324 °C
AP2A2 (UniProt O94973)	-0.301 °C	0.164 °C
LSG1 (UniProt Q9H089)	0.277 °C	2.51 °C
UniProt O60220	-1.49 °C	
FAM213A (UniProt Q9BRX8)	1.93 °C	0.657 °C
UniProt P16520	3.63 °C	-3.02 °C
FBXO22 (UniProt Q8NEZ5)	-0.549 °C	1.02 °C
CCDC47 (UniProt Q96A33)	1.29 °C	-0.785 °C
UniProt Q9Y6K8	-0.317 °C	
YOD1 (UniProt Q5VVQ6)		0.803 °C
MTA2 (UniProt O94776)	-0.114 °C	-0.906 °C
CDC16 (UniProt Q13042)	-0.874 °C	-0.259 °C

As a working copy, some entries already given:
Target	melting temperature shift [1]	melting temperature shift [2]
HDLBP (UniProt Q00341)	-0.297 °C	-0.324 °C
AP2A2 (UniProt O94973)	-0.301 °C	0.164 °C
LSG1 (UniProt Q9H089)	0.277 °C	2.51 °C
UniProt O60220	-1.49 °C	

Continued.

Target	melting temperature shift [1]	melting temperature shift [2]
UniProt Q96LD8	0.718 °C	0.277 °C
PDS5A (UniProt Q29RF7)	-0.0533 °C	-2.09 °C
SLC25A28 (UniProt Q96A46)	1.41 °C	-0.862 °C
TUBB2A (UniProt Q13885)	-0.351 °C	-0.714 °C
SMARCA2 (UniProt P51531)	-0.716 °C	-0.528 °C
UniProt P17213		4.22 °C
UniProt Q13131	-0.0567 °C	-0.402 °C
CDK8 (UniProt P49336)	0.292 °C	
UniProt Q14160	-0.114 °C	-0.846 °C
UniProt Q13227	0.178 °C	-2.21 °C
ERCC4 (UniProt Q92889)	1.97 °C	-0.109 °C
METAP2 (UniProt P50579)	-0.688 °C	0.228 °C
ZMAT2 (UniProt Q96NC0)	-2.36 °C	
APBB2 (UniProt Q92870)	-0.875 °C	4.5 °C
ELP3 (UniProt Q9H9T3)	-0.494 °C	-1.01 °C
UniProt Q99643	1.79 °C	-7.55 °C
TERF2 (UniProt Q15554)	0.435 °C	-1.32 °C
BCAR3 (UniProt O75815)	-0.304 °C	-0.287 °C
USP9X (UniProt Q93008)	-0.754 °C	-0.866 °C
UniProt P60602	0.628 °C	-0.299 °C
GPKOW (UniProt Q92917)	0.013 °C	-1.98 °C
EEF1G (UniProt P26641)	-0.112 °C	0.0135 °C
UniProt Q15700		0.0994 °C

Target	melting temperature shift [1]	melting temperature shift [2]
NUF2 (UniProt Q9BZD4)	-0.605 °C	-0.338 °C
UniProt Q9Y2H1	-1.5 °C	0.31 °C
NUDT4 (UniProt Q9NZJ9)	0.0576 °C	0.145 °C
ZC3H11A (UniProt O75152)	-0.00121 °C	-3.61 °C
TTI2 (UniProt Q6NXR4)	0.0543 °C	-0.551 °C
NTMT1 (UniProt Q9BV86)	-1.04 °C	-0.102 °C
FSCN1 (UniProt Q16658)	-0.954 °C	0.335 °C
UniProt Q16363	0.411 °C	-1.09 °C
NDUFS5 (UniProt O43920)	-0.569 °C	
UniProt Q8NBW4	2.01 °C	-4.61 °C
UniProt O14647	0.535 °C	
MGST1 (UniProt P10620)	2.23 °C	-2.75 °C
UniProt Q8WU68		-0.214 °C
NEK7 (UniProt Q8TDX7)	-1.58 °C	-1.01 °C
UniProt P28161	-0.135 °C	0.158 °C
UniProt Q96CD2	-1.75 °C	
PURA (UniProt Q00577)	-1.74 °C	-0.265 °C
KIRREL (UniProt Q96J84)	0.238 °C	
SLC16A3 (UniProt O15427)	1.94 °C	
RPL13A (UniProt P40429)	0.367 °C	-0.529 °C
UniProt Q9NZA1		-0.397 °C
MAP3K4 (UniProt Q9Y6R4)	-1.19 °C	-0.737 °C
NPM1 (UniProt P06748)	-0.196 °C	1.09 °C

Target	melting temperature shift [1]	melting temperature shift [2]
PTP4A2 (UniProt Q12974)	-0.647 °C	-2.01 °C
KDELC2 (UniProt Q7Z4H8)	0.232 °C	0.481 °C
CLPTM1 (UniProt O96005)	1.35 °C	0.261 °C
ODC1 (UniProt P11926)		-0.00478 °C
LAMTOR3 (UniProt Q9UHA4)	1.29 °C	-0.816 °C
UniProt Q9H4G4	0.863 °C	-0.61 °C
UniProt Q8WTT2	1.1 °C	
UniProt P63027		1.62 °C
UniProt Q96KQ4	-0.339 °C	
DOCK7 (UniProt Q96N67)	-0.763 °C	-0.464 °C
UniProt Q8IXH7	-1.56 °C	
COPS8 (UniProt Q99627)	-0.685 °C	-0.0421 °C
CD2AP (UniProt Q9Y5K6)	-0.371 °C	0.135 °C
UniProt P03891	-0.0653 °C	-1.33 °C
UniProt Q96CX6	-0.0557 °C	1.35 °C
HUWE1 (UniProt Q7Z6Z7)	-0.502 °C	0.173 °C
ARL2BP (UniProt Q9Y2Y0)	-1.14 °C	
CYB5R1 (UniProt Q9UHQ9)	0.0983 °C	-0.0734 °C
XRCC5 (UniProt P13010)	-0.39 °C	-0.65 °C
UniProt Q9Y6Q5		0.558 °C

Repeats are few or missing, and single values can be far off.
